From article PMC4619598 come the findings set out here.

No constants are given. Whether binding was seen depends on the method and setting. Binding seen in cells or lysates may run through a third protein. For some assays here: Binding can be weak; no strength is given. Where a sequence is shown, tags or fusion partners need not be part of it.

Test [1] has as its target ROS1CTD fused with split luciferase (Arabidopsis thaliana). Nature of the test: split reporter; split luciferase in Nicotiana benthamiana (tobacco) leaves, 3 day-post-infiltration; empty vectors as negative control; CCD camera.
Test [2] deals with ROS1NTD fused with split luciferase (Arabidopsis thaliana). The description is as above.

B1: MET18 fused with split luciferase (protein, UniProt Q0WVF8 1-1134)
chain: MMVEPNQLVQHLETFVDTNRSSSQQDDSLKAIASSLENDSLSITQLVREMEMYLTTTDNLVRARGILLLAEILDCLKAKPLNDTIVHTLVGFFSEKLADWRAMCGALVGCLALLKRKDVAGVVTDIDVQAMAKSMIQNVQVQALALHERKLAFELLECLLQQHSEAILTMGDLLVYAMCEAIDGEKDPQCLMIVFHLVELLAPLFPSPSGPLASDASDLFEVIGCYFPLHFTHTKDDEANIRREDLSRGLLLAISSTPFFEPYAIPLLLEKLSSSLPVAKVDSLKCLKDCALKYGVDRMKKHYGALWSALKDTFYSSTGTHLSFAIESLTSPGFEMNEIHRDAVSLLQRLVKQDISFLGFVVDDTRINTVFDTIYRYPQYKEMPDPSKLEVLVISQILSVSAKASVQSCNIIFEAIFFRLMNTLGIVEKTSTGDVVQNGNSTVSTRLYHGGLHLCIELLAASKDLILGFEECSPTSGCANSGCSMVKSFSVPLIQVFTSAVCRSNDDSVVDVYLGVKGLLTMGMFRGGSSPVSRTEFENILVTLTSIITAKSGKTVVWELALKALVCIGSFIDRYHESDKAMSYMSIVVDNLVSLACSSHCGLPYQMILEATSEVCSTGPKYVEKMVQGLEEAFCSSLSDFYVNGNFESIDNCSQLLKCLTNKLLPRVAEIDGLEQLLVHFAISMWKQIEFCGVFSCDFNGREFVEAAMTTMRQVVGIALVDSQNSIIQKAYSVVSSCTLPAMESIPLTFVALEGLQRDLSSRDELILSLFASVIIAASPSASIPDAKSLIHLLLVTLLKGYIPAAQALGSMVNKLGSGSGGTNTSRDCSLEEACAIIFHADFASGKKISSNGSAKIIVGSETTMSKICLGYCGSLDLQTRAITGLAWIGKGLLMRGNERVNEIALVLVECLKSNNCSGHALHPSAMKHAADAFSIIMSDSEVCLNRKFHAVIRPLYKQRCFSTIVPILESLIMNSQTSLSRTMLHVALAHVISNVPVTVILDNTKKLQPLILEGLSVLSLDSVEKETLFSLLLVLSGTLTDTKGQQSASDNAHIIIECLIKLTSYPHLMVVRETSIQCLVALLELPHRRIYPFRREVLQAIEKSLDDPKRKVREEAIRCRQAWASITSGSNIF
Take B1: the binding result in test [1] was “binds”; in test [2], “no binding”.
